The list shows a part of the results.
Experiments:
Test in all cases: glycan array binding signal (z-score within array); higher = stronger binding
Details in all cases: glycan notation: IUPAC condensed, linker removed
Fuc(a1-2)Gal = target: Fuc(a1-2)Gal
Procedure, shortened: (§1)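 From the Consortium for Functional Glycomics database, 3228 arrays were curated, keeping only those whose protein sequence was available. Binding is given as a within-array Z-score averaged across arrays sharing a protein sequence and across linkers. Negative Z-scores can be read as non-binding.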

Fuc(a1-2)Gal(b1-3)GalNAc = target: Fuc(a1-2)Gal(b1-3)GalNAc
Procedure, shortened: as §1

[1] = target: Fuc(a1-2)Gal(b1-3)GalNAc(a1-3)[Fuc(a1-2)]Gal(b1-4)Glc
Procedure, shortened: as §1

[2] = target: Fuc(a1-2)Gal(b1-3)GalNAc(a1-3)[Fuc(a1-2)]Gal(b1-4)GlcNAc
Procedure, shortened: as §1

[3] = target: Fuc(a1-2)Gal(b1-3)GalNAc(b1-3)Gal
Procedure, shortened: as §1

[4] = target: Fuc(a1-2)Gal(b1-3)GalNAc(b1-3)Gal(a1-4)Gal(b1-4)Glc
Procedure, shortened: as §1

[5] = target: Fuc(a1-2)Gal(b1-3)GalNAc(b1-4)[Neu5Ac(a2-3)]Gal(b1-4)Glc
Procedure, shortened: as §1

Fuc(a1-2)Gal(b1-3)GlcNAc = target: Fuc(a1-2)Gal(b1-3)GlcNAc
Procedure, shortened: as §1

[6] = target: Fuc(a1-2)Gal(b1-3)GlcNAc(b1-2)Man(a1-3)[Fuc(a1-2)Gal(b1-3)GlcNAc(b1-2)Man(a1-6)]Man(b1-4)GlcNAc(b1-4)GlcNAc
Procedure, shortened: as §1

[7] = target: Fuc(a1-2)Gal(b1-3)GlcNAc(b1-2)Man(a1-3)[Fuc(a1-2)Gal(b1-3)GlcNAc(b1-2)Man(a1-6)]Man(b1-4)GlcNAc(b1-4)[Fuc(a1-6)]GlcNAc
Procedure, shortened: as §1

[8] = target: Fuc(a1-2)Gal(b1-3)GlcNAc(b1-3)Gal(b1-4)Glc
Procedure, shortened: as §1

[9] = target: Fuc(a1-2)Gal(b1-3)GlcNAc(b1-3)GalNAc
Procedure, shortened: as §1

[10] = target: Fuc(a1-2)Gal(b1-3)GlcNAc(b1-3)[Fuc(a1-2)Gal(b1-3)GlcNAc(b1-6)]GalNAc
Procedure, shortened: as §1

[11] = target: Fuc(a1-2)Gal(b1-3)GlcNAc(b1-3)[Gal(b1-4)GlcNAc(b1-6)]Gal(b1-4)Glc
Procedure, shortened: as §1

[12] = target: Fuc(a1-2)Gal(b1-3)GlcNAc(b1-3)[Neu5Ac(a2-6)Gal(b1-4)GlcNAc(b1-6)]Gal(b1-4)Glc
Procedure, shortened: as §1

[13] = target: Fuc(a1-2)Gal(b1-3)GlcNAc6S
Procedure, shortened: as §1

[14] = target: Fuc(a1-2)Gal(b1-3)[Fuc(a1-4)]GlcNAc
Procedure, shortened: as §1

[15] = target: Fuc(a1-2)Gal(b1-3)[Fuc(a1-4)]GlcNAc(b1-2)Man(a1-3)[Fuc(a1-2)Gal(b1-3)[Fuc(a1-4)]GlcNAc(b1-2)Man(a1-3)]Man(b1-4)GlcNAc(b1-4)GlcNAc
Procedure, shortened: as §1

[16] = target: Fuc(a1-2)Gal(b1-3)[Fuc(a1-4)]GlcNAc(b1-2)Man(a1-3)[Fuc(a1-2)Gal(b1-3)[Fuc(a1-4)]GlcNAc(b1-2)Man(a1-6)]Man(b1-4)GlcNAc(b1-4)[Fuc(a1-6)]GlcNAc(b1-4)[Fuc(a1-6)]GlcNAc
Procedure, shortened: as §1

[17] = target: Fuc(a1-2)Gal(b1-3)[Fuc(a1-4)]GlcNAc(b1-3)[Fuc(a1-3)[Gal(b1-4)]GlcNAc(b1-6)]Gal(b1-4)Glc
Procedure, shortened: as §1

[18] = target: Fuc(a1-2)Gal(b1-3)[Fuc(a1-4)]GlcNAc(b1-3)[Gal(b1-4)GlcNAc(b1-6)]Gal(b1-4)Glc
Procedure, shortened: as §1

[19] = target: Fuc(a1-2)Gal(b1-4)Fuc(a1-3)]GlcNAc(b1-2)Man(a1-3)[Fuc(a1-2)Gal(b1-4)[Fuc(a1-3)]GlcNAc(b1-2)Man(a1-6)]Man(b1-4)GlcNAc(b1-4)GlcNAc
Procedure, shortened: as §1

Fuc(a1-2)Gal(b1-4)Glc = target: Fuc(a1-2)Gal(b1-4)Glc
Procedure, shortened: as §1

Fuc(a1-2)Gal(b1-4)Glc6S = target: Fuc(a1-2)Gal(b1-4)Glc6S
Procedure, shortened: as §1

Fuc(a1-2)Gal(b1-4)GlcNAc = target: Fuc(a1-2)Gal(b1-4)GlcNAc
Procedure, shortened: as §1

[20] = target: Fuc(a1-2)Gal(b1-4)GlcNAc(b1-2)Man
Procedure, shortened: as §1

[21] = target: Fuc(a1-2)Gal(b1-4)GlcNAc(b1-2)Man(a1-3)[Fuc(a1-2)Gal(b1-4)GlcNAc(b1-2)Man(a1-6)]Man(b1-4)GlcNAc(b1-4)GlcNAc
Procedure, shortened: as §1

[22] = target: Fuc(a1-2)Gal(b1-4)GlcNAc(b1-2)Man(a1-3)[Fuc(a1-2)Gal(b1-4)GlcNAc(b1-2)Man(a1-6)]Man(b1-4)GlcNAc(b1-4)[Fuc(a1-6)]GlcNAc
Procedure, shortened: as §1

[23] = target: Fuc(a1-2)Gal(b1-4)GlcNAc(b1-2)[Fuc(a1-2)Gal(b1-4)GlcNAc(b1-4)]Man(a1-3)[Fuc(a1-2)Gal(b1-4)GlcNAc(b1-2)Man(a1-6)]Man(b1-4)GlcNAc(b1-4)GlcNAc
Procedure, shortened: as §1

[24] = target: Fuc(a1-2)Gal(b1-4)GlcNAc(b1-3)Gal(b1-4)GlcNAc
Procedure, shortened: as §1

B1: CD4 (Rattus norvegicus), P05540 (protein)
chain: MCRGFSFRHLLPLLLLQLSKLLVVTQGSTSITAYKSEGESAEFSFPLNLGEESLQGELRWKAEKAPSSQSWITFSLKNQKVSVQKSTSNPKFQLSETLPLTLQIPQVSLQFAGSGNLTLTLDRGILYQEVNLVVMKVTQPDSNTLTCEVMGPTSPKMRLILKQENQEARVSRQEKVIQVQAPEAGVWQCLLSEGEEVKMDSKIQVLSKGLNSGGGSGGGTGGGDLAPQMLRELQETNAALQDVRELLRQQVKEITFLKNTVMECDACGLDRNLPPLAPLGPHPETLVKVKDAEDQLGARVGYIELDLNSGKILESFRPEERFPMMSTFKVLLCGAVLSRIDAGQEQLGRRIHYSQNDLVEYSPVTEKHLTDGMTVRELCSAAITMSDNTAANLLLTTIGGPKELTAFLHNMGDHVTRLDRWEPELNEAIPNDERDTTMPVAMATTLRKLLTGELLTLASRQQLIDWMEADKVAGPLLRSALPAGWFIADKSGAGERGSRGIIAALGPDGKPSRIVVIYTTGSQATMDERNRQIAEIGASLIKHW
For B1, the “glycan array binding signal (z-score)” value (Fuc(a1-2)Gal) was 0.909, the “glycan array binding signal (z-score)” value (Fuc(a1-2)Gal(b1-3)GalNAc) was -0.186 and the “glycan array binding signal (z-score)” value [1] was 0.278. The “glycan array binding signal (z-score)” value [2] was -0.234, the “glycan array binding signal (z-score)” value [3] was 0.94 and the “glycan array binding signal (z-score)” value [4] was -0.596. For the same binder, the “glycan array binding signal (z-score)” value [5] was -0.581, the “glycan array binding signal (z-score)” value (Fuc(a1-2)Gal(b1-3)GlcNAc) was -0.122 and the “glycan array binding signal (z-score)” value [6] was -0.35. For the same binder, the “glycan array binding signal (z-score)” value [7] was 0.03, the “glycan array binding signal (z-score)” value [8] was -0.954 and the “glycan array binding signal (z-score)” value [9] was 0.495. The “glycan array binding signal (z-score)” value [10] was 0.107, the “glycan array binding signal (z-score)” value [11] was -0.355 and the “glycan array binding signal (z-score)” value [12] was -0.447. For the same binder, the “glycan array binding signal (z-score)” value [13] was -0.562, the “glycan array binding signal (z-score)” value [14] was 0.063 and the “glycan array binding signal (z-score)” value [15] was 1.64. For the same binder, the “glycan array binding signal (z-score)” value [16] was 0.558, the “glycan array binding signal (z-score)” value [17] was -0.716 and the “glycan array binding signal (z-score)” value [18] was -0.81. For the same binder, the “glycan array binding signal (z-score)” value [19] was -0.349, the “glycan array binding signal (z-score)” value (Fuc(a1-2)Gal(b1-4)Glc) was 1.27 and the “glycan array binding signal (z-score)” value (Fuc(a1-2)Gal(b1-4)Glc6S) was 1.96. For the same binder, the “glycan array binding signal (z-score)” value (Fuc(a1-2)Gal(b1-4)GlcNAc) was -1.16, the “glycan array binding signal (z-score)” value [20] was -1.34 and the “glycan array binding signal (z-score)” value [21] was 0.007. For the same binder, the “glycan array binding signal (z-score)” value [22] was 0.12, the “glycan array binding signal (z-score)” value [23] was 1.76 and the “glycan array binding signal (z-score)” value [24] was -1.2.
